Results reported in patent US7521528B2, “Conformationally constrained parathyroid hormone (PTH) analogs with lactam bridges” (The General Hospital Corporation, priority 2003, dated 2009).
Where two headings read alike, the source gives them in different places. For some assays here: Part of at least one peptide drawing is inferred or uncertain, most often the ends. For some assays here: At least one compound was matched to its structure with a doubt left. Some entries share one result that the patent states for a list of compounds.

What was measured:
[1] = biological target: T1, P1R (Homo sapiens, UniProt Q03431); assay: cAMP stimulation in HKRK-B7 cells; type: cell-based; conditions: for EC50: cAMP formation
T1 construct: expressed in transfected cells
T1 sequence (Q03431 27-593): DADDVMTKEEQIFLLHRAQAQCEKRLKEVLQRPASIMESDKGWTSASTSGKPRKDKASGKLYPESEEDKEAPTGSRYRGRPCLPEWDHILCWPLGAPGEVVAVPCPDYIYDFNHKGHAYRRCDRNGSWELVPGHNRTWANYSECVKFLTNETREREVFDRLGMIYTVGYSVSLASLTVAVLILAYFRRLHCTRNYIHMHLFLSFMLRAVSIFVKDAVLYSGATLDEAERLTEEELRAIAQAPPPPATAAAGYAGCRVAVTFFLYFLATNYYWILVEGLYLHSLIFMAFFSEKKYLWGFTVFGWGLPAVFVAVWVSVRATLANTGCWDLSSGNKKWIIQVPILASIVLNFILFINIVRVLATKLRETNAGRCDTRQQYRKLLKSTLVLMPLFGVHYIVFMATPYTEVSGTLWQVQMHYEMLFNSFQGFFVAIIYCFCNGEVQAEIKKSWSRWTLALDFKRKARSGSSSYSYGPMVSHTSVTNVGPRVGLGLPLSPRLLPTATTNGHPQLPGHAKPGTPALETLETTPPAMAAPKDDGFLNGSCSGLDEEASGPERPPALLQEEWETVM
Method: (§1) cAMP Stimulation. Stimulation of cells with peptide analogs was performed in 24-well plates. Cells were rinsed with 0.5 mL of binding buffer (50 mM Tris-HCl, 100 mM NaCl, 5 mM KCl, 2 mM CaCl2, 5% heat-inactivated horse serum, 0.5% fetal bovine serum, adjusted to pH 7.5 with HCl) and treated with 200 μL of cAMP assay buffer (Delbecco's modified Eagle's medium containing 2 mM 3-isobutyl-1-methylxanthine, 1 mg/mL bovine serum albumin, 35 mM Hepes-NaOH, pH 7.4) and 100 μL of binding buffer containing varying amounts of peptide analog (final volume=300 μL). The medium was removed after incubation for 30 to 60 minutes at room temperature, and the cells were frozen on dry ice, lysed with 0.5 mL 50 mM HCl, and refrozen ([…]). The cAMP content of the diluted lysate was determined by radioimmunoassay. The EC50 response values were calculated using nonlinear regression (see below).
(§2) Data Calculation. Calculations were performed using Microsoft® Excel. Nonlinear regression analyses of binding and cAMP dose-response data were performed using the four-parameter equation: yp=Min+[(Max−Min)/(1+(IC50/x)^slope)]. The Excel Solver function was utilized for parameter optimization, as described previously (Carter, P. H., et al., Endocrinology 140: 4972-4981 (1999); Bowen, W. P., and Jerman, J. C., Trends in Pharmacol. Sci. 16: 413-417 (1995)). Differences between paired data sets were statistically evaluated using a one-tailed Student's t-test, assuming unequal variances for the two sets.
The functional effects of substitutions at positions 6 and 10 in PTH using a PTH(1-11) analog AlaValAlaGluIleGlnLeuMetHisGlnArg-amide as the scaffold peptide (SEQ. ID. NO. 8). The peptides were analyzed for the capacity to stimulate cAMP formation in HKRK-B7 cells, an LLC-PK1-derived cell line that expresses via stable transfection the recombinant human P1R at high density (˜950,000 receptors per cell).

[2] = biological target: T2, P1R-DelNt (Homo sapiens, UniProt Q03431); assay: cAMP stimulation in LdelNt-2 cells; type: cell-based
T2 construct: expressed in transfected cells
T2 sequence (Q03431 with tags, fused parts or gaps limits assumed): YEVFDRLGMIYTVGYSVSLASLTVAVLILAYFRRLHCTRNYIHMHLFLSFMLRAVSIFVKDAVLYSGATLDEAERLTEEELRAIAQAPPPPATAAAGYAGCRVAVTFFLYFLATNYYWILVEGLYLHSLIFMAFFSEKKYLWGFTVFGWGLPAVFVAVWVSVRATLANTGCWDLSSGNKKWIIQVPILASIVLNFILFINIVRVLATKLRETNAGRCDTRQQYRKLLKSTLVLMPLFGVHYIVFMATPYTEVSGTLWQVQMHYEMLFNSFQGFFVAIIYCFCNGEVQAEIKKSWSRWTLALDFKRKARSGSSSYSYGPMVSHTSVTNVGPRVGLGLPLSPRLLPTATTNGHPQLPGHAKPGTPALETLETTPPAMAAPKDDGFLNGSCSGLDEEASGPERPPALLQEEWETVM
Method: as §1, §2
The two-domain hypothesis of the PTH-P1R interaction mechanism predicts that the effects of the substitutions at positions 6 and 10 observed with the above PTH(1-11) analogs involve interactions (direct or indirect) that occur within the juxtamembrane region of the receptor. To test this hypothesis, P1R-DelNt was utilized. P1R-DeNt is a P1R construct that is deleted for most of the N domain yet which retains nearly full capacity to be expressed on the cell surface and to stimulate cAMP formation in response to N-terminal PTH analogs, and an LLC-PK1-derived cell line was herein established, LdelNt-2, which stably expresses P1R-DelNt.

[3] = biological target: T1, P1R; conditions: cAMP-signaling, literature (Luck et al. 1999); cited from earlier work
[4] = biological target: T1, P1R; conditions: literature (Luck et al. 1999); cited from earlier work
[5] = cAMP response, PTH(1-11) analogs, Table 2

## H-AVAEIALMHQR-NH2 [[Ala^6]PTH(1-11)]
[1]
  EC50: 330 ± 40 µM
[2]; [5]
  EC50: 320 ± 40 µM

## PTH(1-11): short N-terminal fragment of PTH, unmodified, literature data (AVAEIQLMHQR; Mutated hPTH(1-11))
[3]
  EC50: ≥ 100 µM
[4]
  Kd: > 100 µM

## H-AVAEIALMHAR-NH2 [[Ala^6, Ala^10]PTH(1-11)]
[1]
  EC50: 160 ± 20 µM
[2]; cAMP formation
  EC50: 170 ± 50 µM

## H-AVAEIQLMHQR-NH2 [PTH(1-11)(SEQ. ID. NO. 8), AlaValAlaGluIleGlnLeuMetHisGlnArg-amide]
[1]
  EC50: 5 ± 0.5 µM
[2]; cAMP formation
  EC50: 320 ± 40 µM
[2]; [5]
  EC50: 14 ± 3 µM

## H-AVAEIQLMHAR-NH2 [[Ala^10]PTH(1-11)]
[1]
  reduction in potency (EC50) versus parent PTH(1-11): two fold
  EC50: 11 ± 2 µM
